Laboratory results as given in PubChem BioAssay AID540275 (National Center for Advancing Translational Sciences (NCATS), 2011).
Screen size: about 320,000 compounds; about 620 (0.19%) were called active. The shares of active, inactive and inconclusive entries below differ from those in the screen. No stated cut-off is given here; in the data, active means activation above about 80%; inconclusive means between about 30% and that limit; inactive means weaker than that.

Chains of the proteins cited; added tags and fusions are not shown.
UniProt Q8NER1, whole entry, looked up: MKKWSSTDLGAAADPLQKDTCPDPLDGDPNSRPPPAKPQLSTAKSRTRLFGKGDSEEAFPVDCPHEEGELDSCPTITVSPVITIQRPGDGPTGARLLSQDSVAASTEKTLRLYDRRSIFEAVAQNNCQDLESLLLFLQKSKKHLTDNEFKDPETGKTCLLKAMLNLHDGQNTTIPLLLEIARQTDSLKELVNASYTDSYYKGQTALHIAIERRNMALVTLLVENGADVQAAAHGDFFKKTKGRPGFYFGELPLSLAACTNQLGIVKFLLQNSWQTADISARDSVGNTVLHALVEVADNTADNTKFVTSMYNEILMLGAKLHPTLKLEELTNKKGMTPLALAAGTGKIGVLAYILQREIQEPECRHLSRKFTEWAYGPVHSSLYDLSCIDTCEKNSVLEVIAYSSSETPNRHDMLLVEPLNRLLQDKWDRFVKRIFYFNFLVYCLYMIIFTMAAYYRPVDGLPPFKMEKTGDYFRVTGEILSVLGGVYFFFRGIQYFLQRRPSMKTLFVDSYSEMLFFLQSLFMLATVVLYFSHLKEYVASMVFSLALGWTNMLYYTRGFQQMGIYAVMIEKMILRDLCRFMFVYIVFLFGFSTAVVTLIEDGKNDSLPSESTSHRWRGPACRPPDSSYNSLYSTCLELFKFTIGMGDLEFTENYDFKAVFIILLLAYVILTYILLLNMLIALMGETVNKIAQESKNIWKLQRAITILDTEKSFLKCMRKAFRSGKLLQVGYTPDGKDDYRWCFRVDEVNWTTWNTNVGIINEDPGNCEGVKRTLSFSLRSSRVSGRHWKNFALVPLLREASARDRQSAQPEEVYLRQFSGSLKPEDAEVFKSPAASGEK

target: Transient receptor potential cation channel subfamily V member 1 (Homo sapiens) (UniProt Q8NER1); test: HTS Assay for Compounds that Act as Agonists of the Vanilloid Receptor 1; settings: TRPV1-expressing cells, Fluo-8 calcium influx, agonist mode; at 8.33 µM, stronger effect = higher value; further: 0% is about no effect
Procedure, shortened: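 TRPV1-expressing cells were cultured overnight at 35.5C and loaded with Fluo-8 calcium dye for 40 to 90 min at room temperature. After a 10 s baseline, compound was added and calcium influx was read kinetically for 3 min (ex 480/em 520 nm).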

| SMILES | activation |
| --- | --- |
| CN1C(=O)c2cccc3c(N)ccc(c23)C1=O | inconclusive: 69.8% |
| C#Cc1ccc([C@@H]2C=C(C(=O)N3CCN(Cc4ccc5c(c4)OCO5)CC3)O[C@H](OCC)[C@H]2CCCO)cc1 | inconclusive: 42.9% |
| O=C1c2ccccc2CN1CCSC(=S)N1CCSCC1 | active: 90.4% |
| COc1cccc(CC(=O)Nc2ccc(S(=O)(=O)N3CCOCC3)cc2)c1 | inactive: 0.139% |
| O=C(NCCc1ccccc1)Nc1cccc(Cl)c1 | inconclusive: 42.1% |
| O=C(CCc1ccccc1)NNc1cc(N2CCCCC2)nc(N2CCCCC2)n1 | inconclusive: 46.8% |
| Cn1cccc1/C=N/NC(=O)c1cccc(OC(F)(F)C(F)F)c1 | inconclusive: 52% |
| C=Cc1ccc(C(=O)N2CCCC(Nc3ccc4c(c3)OCCO4)C2)cc1 (centres undefined) | inconclusive: 60.2% |
| O=C(C1CCC1)N1CCN(c2ccc(C(F)(F)F)cc2[N+](=O)[O-])CC1 | inactive: 0.288% |
| COc1cccc(-c2nc(CS(=O)(=O)CC(=O)NC3CCCCC3C)c(C)o2)c1 (centres undefined) | inconclusive: 30.5% |
| Cc1occc1C(=O)N1CCC2(CCCN(Cc3ccc(F)c(F)c3)C2)C1 (centres undefined) | inactive: 12.2% |
| CCOc1nc(NCCN2CCOCC2)nc(Nc2ccc([N+](=O)[O-])cc2)n1 | inconclusive: 40.6% |
| CC1Cc2cc(-c3csc(NC(=O)Cc4ccccc4)n3)ccc2N1S(C)(=O)=O (centres undefined) | inactive: -0.443% |
| CCOC(=O)N1CCN(C(=O)c2cc(COc3cccc(C(F)(F)F)c3)on2)CC1 | inconclusive: 39.7% |
| CC(=Nc1ccccc1O)c1sc2ccccc2c1O | inactive: 26.5% |
| Cc1ccc(C)c(C(=O)c2ccccc2NC(=O)c2ccccn2)c1 | inconclusive: 31.9% |
| CCn1cc(C(=O)NCCc2ccccc2)c(=O)c2cc(S(=O)(=O)N3CCCC3)ccc21 | active: 96.4% |
| CCOC(=O)c1c(-c2ccc(OC)cc2)csc1NC(=O)CCN1CCOCC1 | inconclusive: 36.5% |
| O=C(CN1CCN(C(=O)N2CCOCC2)CC1)Nc1cc(Cl)ccc1Cl | inconclusive: 37.5% |
| COc1ccc(/C=C/C(=O)OCC(=O)c2ccc(S(=O)(=O)N3CCCCC3)cc2)cc1OC | inactive: 2.86% |
| Cc1ccc(C(C)C)c(OC/C(O)=C(\C#N)c2nc3ccccc3[nH]2)c1 | inconclusive: 33.2% |
| Cc1cc(C(=O)N/N=C/c2cccc(Cl)c2Cl)no1 | inconclusive: 40.5% |
| Cc1ccc(NC(=O)c2ccc3c(=O)n4c(nc3c2)CCCCC4)nc1 | inconclusive: 38.8% |

| SMILES | activation |
| --- | --- |
| Cc1ccc(NC(=O)c2cc(N3C(=O)CCC3=O)ccc2N2CCOCC2)cc1 | inactive: -2.74% |
| Cc1sc(NC(=S)NC(=O)c2ccco2)c(C(N)=O)c1C | inactive: -3.27% |
| Fc1cccc(-c2cc3nc4c(c(NCc5ccco5)n3n2)CCCC4)c1 | inconclusive: 37.2% |
| CCCNCC(O)COc1ccccc1C(=O)CCc1ccccc1 (centres undefined) | inactive: 4.3% |
| CC1(C)Cc2cccc(OCC(=O)OCC(=O)Nc3ccc(C(N)=O)cc3)c2O1 | inactive: 3.71% |
| CC(C(=O)N1CCc2ccccc21)N1CCN(c2ccccn2)CC1 (centres undefined) | inactive: 5.17% |
| COc1ccc(C(=O)NC2CC(C)(C)Cc3c2cnn3-c2ccccc2C)c(OC)c1OC (centres undefined) | inconclusive: 32.3% |
| CCOC(=O)c1c(NC(=O)CN(CC)CC)sc2c1CCC2 | inactive: 17.4% |
| CCOC(=O)c1c(C)sc2c1N(C(=O)CN(CC)CC)c1cc(Cl)ccc1S2 | inconclusive: 31.1% |
| CCCN1CC(=O)N2C(c3cccc(OC)c3OC)c3[nH]c4ccccc4c3C[C@H]2C1=O (some centres undefined) | inactive: 11% |
| Cc1ccccc1OCc1nc2ccccc2n1C | inconclusive: 33.7% |
| CCOC(=O)c1cnc2c(OC)cccc2c1Nc1ccc2c(c1)OCCO2 | inconclusive: 31.1% |
| Oc1cccc(C(Nc2nccs2)c2ccc3cccnc3c2O)c1 (centres undefined) | inactive: -6.05% |
| Cc1ccc(N2CCN(C(=S)Nc3ccccc3)CC2)cc1 | inactive: 19.9% |
| COc1ccc(C2=NCCn3nc4cc(OC)ccc4c32)cc1 | inactive: 3.79% |
| O=C(NCc1ccccc1Cl)C1CCN(S(=O)(=O)N2CCCCCC2)CC1 | inconclusive: 34.2% |
| O=C(c1cc2ccccn2n1)N1CCN(Cc2ccccc2)CC1 | inconclusive: 34.9% |
| N#C/C(=N\Nc1ccccc1)C(=N)N1CCCCCC1 | inconclusive: 35% |
| Cn1c(CNc2nc3ccccc3n2CCN2CCCCC2)nc2ccccc21 | inactive: 22.6% |
| COc1ccccc1-c1c(C(F)(F)F)oc2cc(OS(C)(=O)=O)ccc2c1=O | inconclusive: 35.1% |
| CCOC(=O)c1c(N)sc(C(=O)OCCOC)c1C | inconclusive: 39.4% |
| CNC(=O)COC(=O)c1cc(-c2ccccc2)nn1-c1ccccc1 | inconclusive: 32% |
| O=C(Nc1cc2c(cc1Cl)OCCCO2)c1ccc(F)cc1 | inconclusive: 32.4% |

| SMILES | activation |
| --- | --- |
| Cc1ccc(C(=O)NCc2ccccc2)cc1Br | inconclusive: 41.9% |
| COC(=O)C1=CN(Cc2ccc(OC)cc2)C=C(C(=O)OC)C1c1cc(OC)c(OC)c(OC)c1 | inactive: 2.51% |
| CCOC(=O)[C@@H](C)N(Cc1ccc(OC)cc1)S(=O)(=O)N(Cc1ccccc1)[C@H](C(=O)OC)C(C)C | inconclusive: 30.4% |
| CCN1CCN(c2ccc(S(=O)(=O)N3CCCCC3)cc2NC(=O)/C=C/c2ccc(OC(F)F)cc2)CC1 | inactive: 9.63% |
| C/C(=N\NC(=O)c1ccccc1O)C1CC1 | inconclusive: 35.1% |
| Cc1ccc2nc(C)c3c(c2c1)OC(C(C)(Cl)Br)C3 (centres undefined) | inconclusive: 40.7% |
| CCOCCn1c(C)c(C(=O)OCC)c2cc(O)c3ccccc3c21 | inconclusive: 68.5% |
| COc1ccc(S(=O)(=O)N=Nc2c(O)[nH]c3ccccc23)cc1 | inactive: -7.7% |
| COC(=O)c1cc(NC(=O)Cc2ccccc2[N+](=O)[O-])cc(C(=O)OC)c1 | active: 83% |
| O=C(N/N=C/c1ccc(Cl)cc1Cl)c1ccncc1 | inconclusive: 63.5% |
| CC(C)(C)c1ccc(OCCON2C(=O)CCC2=O)c(Cl)c1 | inconclusive: 33.8% |
| Oc1ccc(C[C@H]2CNCCN2CCc2cc(C(F)(F)F)cc(C(F)(F)F)c2)cc1 | inactive: 2.37% |
| COc1ccccc1/C=C(/CC(=O)NCc1ccc2c(c1)OCO2)c1nc2ccccc2s1 | inconclusive: 64% |
| Cc1ccccc1NC(=O)c1c(C)nc(SCC(=O)OCc2ccccc2)c(C#N)c1-c1ccc(F)cc1 | inactive: -0.117% |
| C#CCOCCOCCOCCNc1nc(N2CCN(C(=O)[C@H](CCC(=O)O)n3cc(C(N)CO)nn3)CC2)nc(N2CCN(C(=O)[C@H](CCC(=O)O)n3cc(C(N)CC(C)C)nn3)CC2)n1 (some centres undefined) | inactive: -4.45% |
| O=S(=O)(Cc1cc(Cl)nc(-c2ccccc2)n1)c1ccccc1 | inconclusive: 31% |
| NC(=O)C1CCN(C(=O)c2ccc3c(=O)n(Cc4ccco4)c(SCC(=O)c4ccccc4)nc3c2)CC1 | inconclusive: 31.4% |
| Cc1ccc(/C=N/NC(=O)c2cc(-c3ccncc3)nc3ccccc23)o1 | inactive: 1.54% |
| COc1ccccc1/C=C/c1onc(C)c1S(=O)(=O)N1CCC(C(=O)NC(C)C)CC1 | inconclusive: 59.7% |
| COC(=O)CCC(=O)Nc1ccc2oc3c(c2c1)CCCC3 | inconclusive: 51.4% |
| Cn1c(=O)cc(SCC(=O)N2CCN(Cc3ccc4c(c3)OCO4)CC2)c2ccccc21 | inconclusive: 35.1% |
| Cc1ccc(C(=O)Nc2cccc(-c3cnc4ccccc4n3)c2)cc1 | inconclusive: 59.5% |
| CC(C)NC(=S)N1CCN(C(c2ccccc2)c2ccccc2)CC1 | inconclusive: 49.3% |

| SMILES | activation |
| --- | --- |
| CC1Nc2nc(NC(=O)C(C)(C)C)[nH]c(=O)c2N(C)C1C (centres undefined) | inconclusive: 37.4% |
| CC(=O)c1ccc(N2CCN(C(=S)Nc3ccc(Cl)c(Cl)c3)CC2)cc1 | inconclusive: 42.9% |
| CC(C)C(=O)Nc1ccc(Sc2ccc(F)cc2)cc1 | inconclusive: 46.3% |
| O=C(OCc1nc2ccccc2s1)c1ccc(Br)s1 | inconclusive: 37.1% |
| Cc1cc(OCC(=O)NC(C)(C)C)ccc1Cl | inconclusive: 45.1% |
| COc1cccc(-n2ccnc2SCC(=O)N2CCCc3ccccc32)c1 | inconclusive: 35.3% |
| Cc1cc(NC(=O)Nc2cccc(C(F)(F)F)c2)n(C)n1 | inconclusive: 32.8% |
| Cc1cccc([C@@H](NC(=O)OC(C)(C)C)C(=O)OC(C)(C)C)c1 | inconclusive: 58.9% |
| COc1ccc(C(=O)NCCn2ccc3ccccc32)cc1 | inconclusive: 45.3% |
| O=C(CCN1CCc2ccccc2C1)c1ccc2c(c1)OCCO2 | inactive: -2.29% |
| Cc1ccc(C(=O)O/N=C2\CCS(=O)(=O)c3sccc32)cc1 | inconclusive: 64.7% |
| CCc1cc(Cn2nc(-c3ccccc3)cc2C(=O)NCCOC)on1 | inconclusive: 53.8% |
| COc1ccc(S(=O)(=O)N2c3ccccc3OCC2c2ccccc2)cc1 (centres undefined) | inconclusive: 64.3% |
| Cc1ccc(/C=N/Nc2ccnc3cc(Cl)ccc23)c(C)c1 | inconclusive: 58.3% |
| COCc1cc(/C=N\NC(=O)c2ccc(Cl)cc2)ccc1OC | inconclusive: 57.4% |
| CCOC(=O)Nc1nc2ccccc2s1 | inactive: 0.963% |
| O=C(NCc1ccccc1)c1ccc(Cl)cc1 | inconclusive: 45.7% |
| O=C(NCCc1ccccc1)c1ccc2c(c1)OCCCO2 | inconclusive: 42.7% |
| O=C(Cc1ccc(Br)cc1)Nc1ccc(Cl)cc1 | inconclusive: 45.7% |
| COc1ccc(-c2cc3nc4c(c(N5CCC6(CC5)OCCO6)n3n2)CCC4)cc1 | inactive: 29.8% |

5 compounds drawn at random from those above:

| SMILES | activation |
| --- | --- |
| COCc1cc(/C=N\NC(=O)c2ccc(Cl)cc2)ccc1OC | inconclusive: 57.4% |
| O=C(CCN1CCc2ccccc2C1)c1ccc2c(c1)OCCO2 | inactive: -2.29% |
| CC1Nc2nc(NC(=O)C(C)(C)C)[nH]c(=O)c2N(C)C1C (centres undefined) | inconclusive: 37.4% |
| O=C(NCCc1ccccc1)c1ccc2c(c1)OCCCO2 | inconclusive: 42.7% |
| CC(C)C(=O)Nc1ccc(Sc2ccc(F)cc2)cc1 | inconclusive: 46.3% |
